These are yes or no findings as the source states them, for the method shown. Binding seen in cells or lysates may run through a third protein. For some assays here: Binding calls can cover weak binding; strength is not graded here.

One assay addresses PDK2. Put plainly: co-IP; exogenous co-IP of transfected proteins in HEK-293T cells; lysis buffer 150 mM NaCl, 150 mM Tris, 0.4% NP-40, pH 7.4; antibody 4-6 hrs at 4 °C, protein A magnetic beads 2 hrs at 4 °C; immunoblot; some experiments quantitative with UPP1-WT or UPP1-R94A co-overexpressed, one with SC79. (In general: In western blotting, separated proteins are transferred to a membrane and probed.)

Assay [1] has as its target AKT-HA (AKT-FL, wild-type AKT) (human). Described as above.

B1: UPP1-R94A (mutant UPP1) (enzyme, UniProt Q16831 1-310)
chain: MAATGANAEKAESHNDCPVRLLNPNIAKMKEDILYHFNLTTSRHNFPALFGDVKFVCVGGSPSRMKAFIRCVGAELGLDCPGRDYPNICAGTDAYAMYKVGPVLSVSHGMGIPSISIMLHELIKLLYYARCSNVTIIRIGTSGGIGLEPGTVVITEQAVDTCFKAEFEQIVLGKRVIRKTDLNKKLVQELLLCSAELSEFTTVVGNTMCTLDFYEGQGRLDGALCSYTEKDKQAYLEAAYAAGVRNIEMESSVFAAMCSACGLQAAVVCVTLLNRLEGDQISSPRNVLSEYQQRPQRLVSYFIKKKLSKA
Turning to B1, the figures for the binding entry (in the assay with PDK2; in assay [1]) were “binds” and “no binding”, respectively.
